Values from PubChem BioAssay AID493246 (Drosophila RNAi Screening Center, 2011)
In all, the deposit lists about 21,000 reagents; this is an unselected part of those with a known target gene and a result. In the full data, 429 (2%) are marked active. 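Values are raw and not normalised between plates; calls rest on per-plate z-scores that were not deposited.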 Entries without a mark were called inactive. The record does not give: the amount of reagent, the time to read-out.

Assay: 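Identify essential fly genes by loss of cell viability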 (primary screen)
Cell system: Drosophila Kc and S2R+ cells
Reagent: long dsRNA against Drosophila genes
Detection: 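Cell number per well after knock-down, printed as raw plate values; calls were based on per-plate z-scores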
Direction: Kc cell number and S2R+ cell number: higher = more cells remaining
Call rule: 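Counted as a hit if cell number falls by a z-score of at least 3 within its plate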

For CG10051 (GeneID 37222) [DRSC05959], the values are Kc cell number, rep 1 = 1.47e6; Kc cell number, rep 2 = 1.70e6; S2R+ cell number, rep 1 = 1.20e6; S2R+ cell number, rep 2 = 1.38e6.
Against CG15625 (GeneID 33694) [DRSC00460], the values are Kc cell number, rep 1 = 1.46e6; Kc cell number, rep 2 = 1.33e6; S2R+ cell number, rep 1 = 1.08e6; S2R+ cell number, rep 2 = 1.24e6.
Against CG34357 (GeneID 5740349) [DRSC12211], the entry reads Kc cell number, rep 1 = 1.38e6; Kc cell number, rep 2 = 1.47e6; S2R+ cell number, rep 1 = 1.28e6; S2R+ cell number, rep 2 = 1.34e6.
CG34357 (GeneID 5740349) [DRSC12238] scored Kc cell number, rep 1 = 1.55e6; Kc cell number, rep 2 = 1.61e6; S2R+ cell number, rep 1 = 1.08e6; S2R+ cell number, rep 2 = 1.15e6.
Silencing of CG34357 (GeneID 5740349) [DRSC12334] gave: Kc cell number, rep 1 = 1.36e6; Kc cell number, rep 2 = 1.41e6; S2R+ cell number, rep 1 = 1.28e6; S2R+ cell number, rep 2 = 1.37e6.
After knock-down of ttv (GeneID 36614) [DRSC07709], the record shows Kc cell number, rep 1 = 1.46e6; Kc cell number, rep 2 = 1.49e6; S2R+ cell number, rep 1 = 1.18e6; S2R+ cell number, rep 2 = 1.29e6.
Against msl-3 (GeneID 38779) [DRSC11371], the values are Kc cell number, rep 1 = 1.62e6; Kc cell number, rep 2 = 1.66e6; S2R+ cell number, rep 1 = 1.24e6; S2R+ cell number, rep 2 = 1.26e6.
With knock-down of Gclm (GeneID 248194) [DRSC15677] the results were Kc cell number, rep 1 = 1.62e6; Kc cell number, rep 2 = 1.66e6; S2R+ cell number, rep 1 = 1.40e6; S2R+ cell number, rep 2 = 1.40e6.

Part of the list above, limited to “Kc cell number, rep 1”:
msl-3 (GeneID 38779) [DRSC11371] = 1.62e6
Gclm (GeneID 248194) [DRSC15677] = 1.62e6

The list goes on.
After knock-down of CG7296 (GeneID 34469) [DRSC03042], the screen gave Kc cell number, rep 1 = 1.65e6; Kc cell number, rep 2 = 1.66e6; S2R+ cell number, rep 1 = 1.10e6; S2R+ cell number, rep 2 = 1.19e6.
Silencing of Ance (GeneID 34805) [DRSC01865] resulted in: Kc cell number, rep 1 = 1.28e6; Kc cell number, rep 2 = 1.25e6; S2R+ cell number, rep 1 = 1.25e6; S2R+ cell number, rep 2 = 1.26e6.
Against levy (GeneID 37728) [DRSC04289], the entry reads Kc cell number, rep 1 = 1.59e6; Kc cell number, rep 2 = 1.69e6; S2R+ cell number, rep 1 = 1.29e6; S2R+ cell number, rep 2 = 1.39e6.
With knock-down of BG642163 (GeneID 4379888) [DRSC00342], the screen gave Kc cell number, rep 1 = 1.51e6; Kc cell number, rep 2 = 1.44e6; S2R+ cell number, rep 1 = 1.14e6; S2R+ cell number, rep 2 = 1.20e6.
After knock-down of BG642163 (GeneID 4379888) [DRSC00343], the record shows Kc cell number, rep 1 = 1.52e6; Kc cell number, rep 2 = 1.44e6; S2R+ cell number, rep 1 = 1.13e6; S2R+ cell number, rep 2 = 1.29e6.
